These are yes or no findings as the source states them, for the method shown. Some results given as binding are weak or reduced against the parent protein; the word gives no strength.
Molecular target: T1, scabies mite serpin SMSB4, wild type (Sarcoptes scabiei)
T1 sequence: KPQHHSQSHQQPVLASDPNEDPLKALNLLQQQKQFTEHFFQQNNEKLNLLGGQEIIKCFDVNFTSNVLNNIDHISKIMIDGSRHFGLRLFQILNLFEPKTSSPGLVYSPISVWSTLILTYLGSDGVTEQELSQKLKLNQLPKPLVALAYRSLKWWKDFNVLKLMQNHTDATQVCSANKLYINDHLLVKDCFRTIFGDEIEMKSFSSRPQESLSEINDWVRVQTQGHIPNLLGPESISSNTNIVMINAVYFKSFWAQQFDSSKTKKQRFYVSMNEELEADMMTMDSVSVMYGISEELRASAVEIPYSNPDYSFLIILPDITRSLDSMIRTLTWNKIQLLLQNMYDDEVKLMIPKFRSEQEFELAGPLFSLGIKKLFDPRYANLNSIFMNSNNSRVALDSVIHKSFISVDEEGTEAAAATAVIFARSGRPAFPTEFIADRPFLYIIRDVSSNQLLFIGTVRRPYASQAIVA
Test: ELISA; SMSB3 or SMSB4 coated at 10 µg/ml; serial dilutions of normal human serum (0-100%) for 10, 20, 40 or 60 min at 37°C; bound complement factors detected with specific antibodies; only the target purified

The chains behind the UniProt entries cited, without tags or fusion partners. Where a name states a change or a piece, a line headed by the entry shows the natural chain unless it says otherwise. Residues count along the entry.
UniProt P11226, residues 21-248: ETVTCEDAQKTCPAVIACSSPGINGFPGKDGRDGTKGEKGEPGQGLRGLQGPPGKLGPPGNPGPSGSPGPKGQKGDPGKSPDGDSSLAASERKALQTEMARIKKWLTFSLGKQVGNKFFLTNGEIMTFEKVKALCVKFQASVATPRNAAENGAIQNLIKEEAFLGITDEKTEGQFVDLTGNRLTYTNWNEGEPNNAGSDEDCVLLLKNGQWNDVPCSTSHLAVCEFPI
UniProt P13671, residues 22-934: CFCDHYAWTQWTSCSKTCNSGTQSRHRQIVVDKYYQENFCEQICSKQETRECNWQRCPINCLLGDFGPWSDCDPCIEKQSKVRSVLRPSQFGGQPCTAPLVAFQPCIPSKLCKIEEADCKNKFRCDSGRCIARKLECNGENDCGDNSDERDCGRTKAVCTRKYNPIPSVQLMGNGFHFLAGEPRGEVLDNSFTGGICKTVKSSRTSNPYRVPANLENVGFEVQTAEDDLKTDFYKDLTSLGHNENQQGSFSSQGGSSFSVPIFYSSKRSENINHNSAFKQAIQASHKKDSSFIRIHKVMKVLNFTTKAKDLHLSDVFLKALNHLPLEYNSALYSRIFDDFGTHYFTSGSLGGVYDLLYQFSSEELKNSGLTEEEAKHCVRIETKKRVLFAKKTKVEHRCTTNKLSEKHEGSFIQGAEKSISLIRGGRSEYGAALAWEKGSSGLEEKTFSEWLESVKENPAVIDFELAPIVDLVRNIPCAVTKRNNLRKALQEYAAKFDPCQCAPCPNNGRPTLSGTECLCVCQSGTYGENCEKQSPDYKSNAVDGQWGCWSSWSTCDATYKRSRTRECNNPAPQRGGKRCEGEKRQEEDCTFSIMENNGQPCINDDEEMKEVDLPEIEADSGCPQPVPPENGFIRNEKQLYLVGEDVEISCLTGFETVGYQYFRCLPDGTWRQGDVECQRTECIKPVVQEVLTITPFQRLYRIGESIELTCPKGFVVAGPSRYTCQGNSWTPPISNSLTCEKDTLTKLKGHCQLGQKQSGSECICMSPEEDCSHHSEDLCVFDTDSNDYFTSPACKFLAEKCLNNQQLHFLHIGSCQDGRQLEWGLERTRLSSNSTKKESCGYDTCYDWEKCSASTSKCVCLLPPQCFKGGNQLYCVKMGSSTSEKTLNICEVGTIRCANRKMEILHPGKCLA
UniProt P07357: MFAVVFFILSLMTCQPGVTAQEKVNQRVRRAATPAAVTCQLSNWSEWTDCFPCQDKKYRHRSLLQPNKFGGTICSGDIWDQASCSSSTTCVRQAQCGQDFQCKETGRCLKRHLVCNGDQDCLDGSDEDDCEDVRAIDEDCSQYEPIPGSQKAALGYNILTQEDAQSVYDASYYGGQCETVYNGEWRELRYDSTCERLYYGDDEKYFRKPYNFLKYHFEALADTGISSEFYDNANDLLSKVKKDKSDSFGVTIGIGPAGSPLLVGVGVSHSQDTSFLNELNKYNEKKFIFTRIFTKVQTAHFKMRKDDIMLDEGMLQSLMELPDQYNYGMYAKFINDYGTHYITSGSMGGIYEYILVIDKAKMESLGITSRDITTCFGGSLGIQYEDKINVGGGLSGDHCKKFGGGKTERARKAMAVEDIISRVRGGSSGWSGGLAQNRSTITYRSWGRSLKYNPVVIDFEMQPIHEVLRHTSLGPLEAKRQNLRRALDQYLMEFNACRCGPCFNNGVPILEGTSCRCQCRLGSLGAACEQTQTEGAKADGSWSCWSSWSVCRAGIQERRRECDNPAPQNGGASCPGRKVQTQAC
UniProt P07358: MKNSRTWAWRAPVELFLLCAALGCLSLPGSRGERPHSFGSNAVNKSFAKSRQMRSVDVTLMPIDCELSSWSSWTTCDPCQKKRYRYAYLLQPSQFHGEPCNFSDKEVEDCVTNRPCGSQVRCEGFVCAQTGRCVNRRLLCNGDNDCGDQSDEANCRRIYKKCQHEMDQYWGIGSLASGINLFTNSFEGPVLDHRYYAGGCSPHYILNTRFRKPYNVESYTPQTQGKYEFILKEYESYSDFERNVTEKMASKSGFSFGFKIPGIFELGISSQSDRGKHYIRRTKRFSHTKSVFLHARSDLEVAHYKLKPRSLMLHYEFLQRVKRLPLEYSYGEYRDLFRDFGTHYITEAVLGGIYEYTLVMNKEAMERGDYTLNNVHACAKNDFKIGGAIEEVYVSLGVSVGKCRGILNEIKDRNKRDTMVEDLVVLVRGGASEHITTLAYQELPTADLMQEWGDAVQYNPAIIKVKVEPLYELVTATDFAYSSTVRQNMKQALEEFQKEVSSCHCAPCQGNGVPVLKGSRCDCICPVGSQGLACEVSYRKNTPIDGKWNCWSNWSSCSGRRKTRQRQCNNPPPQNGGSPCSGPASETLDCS
UniProt P07360: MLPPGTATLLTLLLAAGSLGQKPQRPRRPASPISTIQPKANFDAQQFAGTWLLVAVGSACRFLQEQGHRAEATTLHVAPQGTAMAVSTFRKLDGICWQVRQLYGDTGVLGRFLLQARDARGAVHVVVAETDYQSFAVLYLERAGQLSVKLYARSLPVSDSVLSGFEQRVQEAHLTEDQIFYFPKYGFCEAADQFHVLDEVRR
UniProt P27918, residues 28-469: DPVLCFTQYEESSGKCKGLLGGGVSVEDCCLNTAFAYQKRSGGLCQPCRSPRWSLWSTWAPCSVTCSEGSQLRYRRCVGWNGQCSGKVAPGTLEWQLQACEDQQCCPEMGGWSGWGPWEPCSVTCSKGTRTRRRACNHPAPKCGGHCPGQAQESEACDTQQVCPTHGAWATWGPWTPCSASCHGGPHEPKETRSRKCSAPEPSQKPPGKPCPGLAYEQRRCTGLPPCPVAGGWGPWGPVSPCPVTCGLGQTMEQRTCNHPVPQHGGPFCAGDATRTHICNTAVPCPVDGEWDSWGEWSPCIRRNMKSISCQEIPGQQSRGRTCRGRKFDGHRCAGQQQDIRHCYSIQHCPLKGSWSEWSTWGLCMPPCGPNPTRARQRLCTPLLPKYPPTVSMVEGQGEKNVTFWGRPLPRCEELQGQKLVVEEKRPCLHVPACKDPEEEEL

Row | Substance | binding
1 | human MBL (from UniProt P11226 21-248) | binds
2 | human complement C6 (from UniProt P13671 22-934) | binds
3 | human complement C8 (from UniProt P07357;P07358;P07360) (complex) | binds
4 | human properdin (from UniProt P27918 28-469) | binds
